US20190375846A1
Results are given in words; binding and its absence hold for the method and conditions named. Some binding calls cover weakened binding; strength is not graded here. Sequences can lack the tags named with a protein.

T1: human GITR-Fc (human) (UniProt Q9Y5U5)
T1 sequence (looked up): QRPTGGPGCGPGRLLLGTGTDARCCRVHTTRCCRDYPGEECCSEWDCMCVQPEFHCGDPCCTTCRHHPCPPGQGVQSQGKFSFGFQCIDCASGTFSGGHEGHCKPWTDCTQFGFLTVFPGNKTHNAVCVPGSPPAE


Target: T1, human GITR-Fc (human)
Test: post-selection screening ELISA, scFv

Row | Binder | binding
1 | D_B7 scFv (scFv, V domains shown) VH: EVQLVESGGGLVQPGGSLRLSCAASGFSLSTSGYGMGWVRQAPGKGLEWLAHIWWDDDKYYVDSVKGRFTISRDNAKNSLYLQMNSLRAEDTAVYYCARTRQYFPFAYWGQGTLVTVSS VL: EIVLTQSPATLSLSPGERATLSCRASQNVGTNVAWYQQKPGQAPRLLIYSASYRASGIPARFSGSGSGTDFTLTISSLEPEDFAVYYCQQYSNDPLTFGGGTKVEIK | binds
2 | K_E12 scFv (scFv, V domains shown) VH: EVQLVESGGGLVQPGGSLRLSCAASGFTLSTSGMGMSWVRQAPGKGLEWVAHIWWDDDKYYVDSVKGRFTISRDNAKNSLYLQMNSLRAEDTAVYYCARSRRYFPFAYWGQGTLVTVSS VL: EIVLTQSPATLSLSPGERATLSCRASQNVGSNVAWYQQKPGQAPRLLIYSASYRASGIPARFSGSGSGTDFTLTISSLEPEDFAVYYCQQYSTDPLTFGGGTKVEIK | binds
